Reference: PubChem BioAssay (EPA / NIEHS)
This list was built around the results that the source calls inconclusive (neither active nor inactive); the mix of calls is not that of the screen. Potencies of inconclusive entries are doubtful fits and often do not repeat. The source made the active and inactive calls. How the source made its calls: active means hit-call score of the fitted dose curve at least 0.9, where 1 is the maximum; inconclusive means response in the unintended direction; inactive means score below 0.9.

Experiment: ACEA_AR_antagonist_AUC_viability: ACEA Biosciences xCELLigence Real-Time Cell Analysis on Androgen Receptor Antagonism for Viability (AID 2283776);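 further: area under impedance growth curve at 80 h after dosing as viability; hits lower the growth signal relative to DMSO meaning cytotoxicity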
Method in brief: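 22Rv1 human prostate cancer cells were seeded on electrode plates, monitored overnight, then exposed to eight 1:4 dilutions from 100 uM final. Impedance-based growth kinetics at 80 h gave an AUC viability endpoint normalized to DMSO.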

| SMILES | AC50 | outcome |
| --- | --- | --- |
| OC[C@H]1O[C@@H](O[C@H]2[C@H](O)[C@@H](O)[C@H](O)O[C@@H]2CO)[C@H](O)[C@@H](O)[C@H]1O | inconclusive: 3300 nM | – |
| OCC(O)c1ccccc1 (configuration not stated) | – | inactive |
| O=C(O)c1ccc2c(c1)nc(C(=O)NC1CCN(C3CC3)CC1)n2Cc1cc(-c2ccc(Cl)s2)on1 | active: 15800 nM | – |
| CCN(CCC#N)c1ccc(N=Nc2c(Cl)cc([N+](=O)[O-])cc2Cl)cc1 | active: 3410 nM | – |
| CC1(C)[C@@H]2CC[C@@]1(C)C(=O)C2 | – | inactive |
| CC(C)CCCCCCc1ccc(OCCOCCO)cc1 | – | inactive |
| CC[C@H](C)C(=O)O[C@H]1C[C@@H](C)C=C2C=C[C@H](C)[C@H](CC[C@@H]3C[C@@H](O)CC(=O)O3)[C@H]21 | active: 50000 nM | – |
| CCCCCCC=O | – | inactive |
| CN(C)c1ccc(C(=C2C=CC(=[N+](C)C)C=C2)c2ccc(N(C)C)cc2)cc1 | active: 161 nM | – |
| O=S(=O)(O)c1ccccc1C=Cc1ccc(-c2ccc(C=Cc3ccccc3S(=O)(=O)O)cc2)cc1 | – | inactive |
| c1ccc2cc3c(ccc4ccccc43)cc2c1 | inconclusive: 0.726 nM | – |
| CCCCCCCC/C=C\CCCCCCCC(=O)OCCO | inconclusive: 5840 nM | – |
| OC(Cn1cncn1)(Cn1cncn1)c1ccc(F)cc1F | – | inactive |
| O=c1[nH]c2ccc(S(=O)CCN3CCC(Cc4ccc(F)cc4)CC3)cc2o1 (configuration not stated) | – | inactive |
| C1CN(SSN2CCOCC2)CCO1 | inconclusive: 303 nM | – |
| CCCC(O)C(CC)CO (configuration not stated) | inconclusive: 184 nM | – |
| CCCCCCCCCCCCCCCCCCOS(=O)(=O)O | inconclusive: 271 nM | – |
| COc1ccc2[nH]cc(CCNC(C)=O)c2c1 | inconclusive: 12.6 nM | – |
| CCCCC/C=C\C/C=C\CCCCCCCC(=O)OC | – | inactive |

| SMILES | AC50 | outcome |
| --- | --- | --- |
| CCCCCCCC(=O)OC | – | inactive |
| Cc1ccc([N+](=O)[O-])c(C)c1 | inconclusive: 129 nM | – |
| NC1CCCCC1 | – | inactive |
| NCc1cccc(CN)c1 | inconclusive: 300 nM | – |
| O=C1OC2(c3ccccc31)c1cc(Br)c(O)c(Br)c1Oc1c2cc(Br)c(O)c1Br | inconclusive: 437 nM | – |
| O=C(O)C1=NN(c2ccc(S(=O)(=O)O)cc2)C(=O)C1 | inconclusive: 839 nM | – |
| O=c1[nH]sc2ccccc12 | active: 7870 nM | – |
| OC1CCC(C2CCCCC2)CC1 (configuration not stated) | active: 50000 nM | – |
| CCCCC(CC)COC(=O)/C=C/c1ccc(OC)cc1 (configuration not stated) | inconclusive: 16600 nM | – |
| CC(C)(N)CO | inconclusive: 216 nM | – |
| O=C(OCc1ccccc1)c1ccc(O)cc1 | inconclusive: 138 nM | – |
| CC1=C(C)S(=O)(=O)CCS1(=O)=O | active: 88800 nM | – |
| O=S1(=O)OC(c2ccc(O)cc2)(c2ccc(O)cc2)c2ccccc21 | inconclusive: 200 nM | – |
| O=Cc1ccccc1C=O | active: 78700 nM | – |
| CCCCCCCCCCCCCC[P+](CCCC)(CCCC)CCCC | active: 13.8 nM | – |
| CCCCCCCCCC=O | inconclusive: 7630 nM | – |
| Cc1ccc(S)cc1 | inconclusive: 315 nM | – |
| NC(=O)c1ccccc1O | inconclusive: 222 nM | – |

Two entries from above, comma-delimited:
SMILES,AC50,outcome
O=C(O)c1ccc2c(c1)nc(C(=O)NC1CCN(C3CC3)CC1)n2Cc1cc(-c2ccc(Cl)s2)on1,active: 15800 nM,–
CCCCCCCCCCCCCC[P+](CCCC)(CCCC)CCCC,active: 13.8 nM,–
